Source: patent US20050084914A1, “Assays with primary cells” (priority 2003, published 2005)
At least one compound was matched to its structure with a doubt left.

Experiments:
PPARγ = molecular target: T1, PPARγ (Homo sapiens, UniProt P37231); assay: PPARγ activity assay based on PEPCK expression in primary pre-adipocytes on coded carriers
T1 sequence (P37231 1-505): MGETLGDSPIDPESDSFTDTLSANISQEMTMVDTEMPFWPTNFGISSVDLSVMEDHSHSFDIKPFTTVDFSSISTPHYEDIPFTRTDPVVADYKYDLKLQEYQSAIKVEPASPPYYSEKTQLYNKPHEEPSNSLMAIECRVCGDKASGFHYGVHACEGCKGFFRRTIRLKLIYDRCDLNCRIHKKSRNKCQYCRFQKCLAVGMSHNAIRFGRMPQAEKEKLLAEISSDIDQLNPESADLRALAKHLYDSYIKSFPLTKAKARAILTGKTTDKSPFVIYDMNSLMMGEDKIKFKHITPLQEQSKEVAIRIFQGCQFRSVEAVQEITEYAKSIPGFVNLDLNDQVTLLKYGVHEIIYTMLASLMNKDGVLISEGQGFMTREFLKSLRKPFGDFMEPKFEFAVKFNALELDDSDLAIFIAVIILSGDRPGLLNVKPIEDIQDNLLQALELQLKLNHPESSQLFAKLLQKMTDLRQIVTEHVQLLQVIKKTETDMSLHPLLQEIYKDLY

primary pre-adipocytes = assay: adipocyte differentiation assay based on lipid accumulation, primary pre-adipocytes on coded carriers; assay type: cell-based; conditions: four human subjects, visceral and subcutaneous samples, shared fluid volume, multiple days

Row | SMILES | induction of PEPCK expression as a measure of PPARγ activity (PPARγ; four donor samples (visceral and subcutaneous pre-adipocytes), shared fluid volume, four days) | tissue preference of PEPCK expression activation (PPARγ; visceral versus subcutaneous samples) | variation of the differentiation index (lipid accumulation) between donor samples (primary pre-adipocytes)
1 | CC1(COc2ccc(CC3SC(=O)NC3=O)cc2)CCCCC1 (stereo not drawn) [ciglitazone] | weak and variable induction | preferentially activate PEPCK expression in visceral samples | 
2 | Cc1c(C)c2c(c(C)c1O)CCC(C)(COc1ccc(CC3SC(=O)NC3=O)cc1)O2 (stereo not drawn) [troglitazone] |  |  | at least about four-fold
